These are yes or no findings as the source states them, for the method shown. In cells and extracts the contact can be indirect. Some binding calls cover weakened binding; strength is not graded here.

Protein sequences, listed by entry. Tags and fused reporters are not part of them. Residues count along the entry.
UniProt Q9NZQ7, residues 19-290: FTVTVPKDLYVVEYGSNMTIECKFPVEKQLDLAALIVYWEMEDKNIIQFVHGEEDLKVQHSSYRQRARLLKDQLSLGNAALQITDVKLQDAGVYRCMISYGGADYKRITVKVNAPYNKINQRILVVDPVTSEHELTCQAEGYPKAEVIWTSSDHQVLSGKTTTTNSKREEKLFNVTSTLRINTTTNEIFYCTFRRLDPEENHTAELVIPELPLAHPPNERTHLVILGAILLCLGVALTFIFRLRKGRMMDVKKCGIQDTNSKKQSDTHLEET
UniProt Q9NZM1: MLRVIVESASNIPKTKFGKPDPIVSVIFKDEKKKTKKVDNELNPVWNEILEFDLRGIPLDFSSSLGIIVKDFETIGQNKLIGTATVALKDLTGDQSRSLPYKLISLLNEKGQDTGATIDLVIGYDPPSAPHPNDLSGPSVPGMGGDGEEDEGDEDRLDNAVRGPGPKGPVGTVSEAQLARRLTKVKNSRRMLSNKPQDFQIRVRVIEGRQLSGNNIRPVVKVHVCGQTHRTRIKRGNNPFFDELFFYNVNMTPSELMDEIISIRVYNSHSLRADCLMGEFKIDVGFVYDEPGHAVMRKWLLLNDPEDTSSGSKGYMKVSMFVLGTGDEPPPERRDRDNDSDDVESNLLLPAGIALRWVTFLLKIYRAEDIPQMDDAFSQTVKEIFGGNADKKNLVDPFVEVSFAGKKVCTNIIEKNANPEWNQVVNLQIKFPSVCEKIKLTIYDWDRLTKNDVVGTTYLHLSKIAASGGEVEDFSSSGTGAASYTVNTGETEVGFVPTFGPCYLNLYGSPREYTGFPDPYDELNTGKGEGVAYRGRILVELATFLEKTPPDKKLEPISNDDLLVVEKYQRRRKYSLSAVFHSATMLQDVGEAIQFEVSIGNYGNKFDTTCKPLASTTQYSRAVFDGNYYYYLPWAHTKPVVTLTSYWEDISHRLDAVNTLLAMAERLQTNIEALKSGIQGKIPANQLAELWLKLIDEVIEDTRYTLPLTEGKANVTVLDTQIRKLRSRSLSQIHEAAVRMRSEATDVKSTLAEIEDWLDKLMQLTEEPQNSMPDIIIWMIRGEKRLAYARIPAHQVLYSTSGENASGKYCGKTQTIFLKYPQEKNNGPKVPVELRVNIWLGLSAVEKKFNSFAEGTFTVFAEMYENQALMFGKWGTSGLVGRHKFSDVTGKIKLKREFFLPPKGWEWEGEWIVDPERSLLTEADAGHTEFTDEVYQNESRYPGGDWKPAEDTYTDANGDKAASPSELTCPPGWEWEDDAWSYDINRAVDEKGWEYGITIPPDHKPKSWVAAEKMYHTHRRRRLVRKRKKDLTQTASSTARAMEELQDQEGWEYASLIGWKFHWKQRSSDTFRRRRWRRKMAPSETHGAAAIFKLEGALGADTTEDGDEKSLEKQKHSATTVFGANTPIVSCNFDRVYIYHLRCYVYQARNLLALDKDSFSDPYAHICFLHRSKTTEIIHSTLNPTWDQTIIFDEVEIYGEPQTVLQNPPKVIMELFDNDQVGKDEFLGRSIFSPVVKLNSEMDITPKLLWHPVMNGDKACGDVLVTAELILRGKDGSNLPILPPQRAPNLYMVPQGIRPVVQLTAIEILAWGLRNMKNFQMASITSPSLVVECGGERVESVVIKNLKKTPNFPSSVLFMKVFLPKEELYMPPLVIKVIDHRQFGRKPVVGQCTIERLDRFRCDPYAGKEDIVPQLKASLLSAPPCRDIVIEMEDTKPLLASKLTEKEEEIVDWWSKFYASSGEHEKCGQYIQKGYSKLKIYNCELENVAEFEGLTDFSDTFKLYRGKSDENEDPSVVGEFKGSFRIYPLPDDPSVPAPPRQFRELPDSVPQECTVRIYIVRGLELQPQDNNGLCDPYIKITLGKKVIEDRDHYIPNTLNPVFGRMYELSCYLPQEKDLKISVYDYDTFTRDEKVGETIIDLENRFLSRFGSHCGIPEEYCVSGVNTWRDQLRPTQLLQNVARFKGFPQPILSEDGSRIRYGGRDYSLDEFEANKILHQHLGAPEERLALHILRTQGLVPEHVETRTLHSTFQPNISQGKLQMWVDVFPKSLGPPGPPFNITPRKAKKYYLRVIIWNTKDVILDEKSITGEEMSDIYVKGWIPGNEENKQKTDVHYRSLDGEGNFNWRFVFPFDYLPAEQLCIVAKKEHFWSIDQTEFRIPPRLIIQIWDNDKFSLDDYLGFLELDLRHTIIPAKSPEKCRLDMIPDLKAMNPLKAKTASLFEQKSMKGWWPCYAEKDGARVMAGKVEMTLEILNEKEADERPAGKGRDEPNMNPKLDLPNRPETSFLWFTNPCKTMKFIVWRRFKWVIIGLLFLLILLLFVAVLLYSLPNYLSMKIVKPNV
UniProt P35968, residues 20-1356: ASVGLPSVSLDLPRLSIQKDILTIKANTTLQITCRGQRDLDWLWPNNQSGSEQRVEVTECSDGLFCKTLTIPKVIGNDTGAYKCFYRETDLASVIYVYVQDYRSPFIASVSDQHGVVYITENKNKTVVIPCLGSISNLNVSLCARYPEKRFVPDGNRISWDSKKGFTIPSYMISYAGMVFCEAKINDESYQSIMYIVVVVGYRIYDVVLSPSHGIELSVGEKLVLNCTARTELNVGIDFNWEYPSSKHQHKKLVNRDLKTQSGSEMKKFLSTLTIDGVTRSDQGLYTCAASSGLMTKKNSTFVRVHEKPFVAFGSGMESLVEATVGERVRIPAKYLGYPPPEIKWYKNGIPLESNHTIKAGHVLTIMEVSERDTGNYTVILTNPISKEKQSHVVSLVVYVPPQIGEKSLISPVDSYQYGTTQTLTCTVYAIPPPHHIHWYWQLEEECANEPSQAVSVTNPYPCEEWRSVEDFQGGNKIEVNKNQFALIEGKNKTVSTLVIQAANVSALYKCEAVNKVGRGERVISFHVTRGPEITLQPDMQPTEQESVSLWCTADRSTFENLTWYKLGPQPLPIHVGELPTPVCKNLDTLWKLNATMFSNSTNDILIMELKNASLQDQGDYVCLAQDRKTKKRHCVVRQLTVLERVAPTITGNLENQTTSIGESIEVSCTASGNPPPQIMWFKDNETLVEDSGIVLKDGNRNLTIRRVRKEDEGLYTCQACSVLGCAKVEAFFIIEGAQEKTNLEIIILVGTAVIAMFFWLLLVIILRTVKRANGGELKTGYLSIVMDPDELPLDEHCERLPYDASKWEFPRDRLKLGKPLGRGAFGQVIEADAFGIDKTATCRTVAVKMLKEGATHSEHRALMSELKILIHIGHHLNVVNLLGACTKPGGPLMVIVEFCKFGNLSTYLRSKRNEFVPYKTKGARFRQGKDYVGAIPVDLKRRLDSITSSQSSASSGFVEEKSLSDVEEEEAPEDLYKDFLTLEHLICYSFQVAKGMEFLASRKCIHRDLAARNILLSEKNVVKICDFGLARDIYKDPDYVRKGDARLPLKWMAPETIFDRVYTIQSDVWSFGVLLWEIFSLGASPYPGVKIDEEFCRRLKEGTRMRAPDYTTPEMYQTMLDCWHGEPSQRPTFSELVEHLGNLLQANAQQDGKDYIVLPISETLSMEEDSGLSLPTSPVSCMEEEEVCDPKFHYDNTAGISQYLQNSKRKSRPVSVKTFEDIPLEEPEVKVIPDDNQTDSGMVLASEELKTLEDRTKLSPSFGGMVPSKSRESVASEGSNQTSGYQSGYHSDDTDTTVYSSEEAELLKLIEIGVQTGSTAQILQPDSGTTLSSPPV

The record followed here is publication PMC11816266.

The target of experiment [1] is Flag-PD-L1 (CD274, human, 3×FLAG) (human) (UniProt Q9NZQ7). The experiment is described as follows: co-IP; RKO cells stably expressing the Flag-tagged bait; lysis in 0.5% NP-40 lysis buffer (50 mmol/L Tris-HCl pH 8.0, 150 mmol/L NaCl, 0.5% Triton X-100); 2 mg protein in 1 mL; anti-Flag antibody and Protein A + G magnetic beads overnight at 4 °C; IgG as control; Western blot; for Flag-MYOF also after apatinib or PBS for 24 h (interaction reduced with apatinib). A general note: Immunoblotting shows a protein as a band on a membrane.

The target of experiment [2] is Flag-MYOF (Myoferlin, human, 3×FLAG) (human) (UniProt Q9NZM1). The description is as above.

Consider “Myoferlin (MYOF), endogenous in RKO cells (from UniProt Q9NZM1 1-2061)”, for which, in experiment [1], the binding entry is recorded as “binds”.

As to “VEGFR2 (KDR) (from UniProt P35968 20-1356) (receptor)”, the binding result in experiment [2] is reported as “binds”.
